# Assay results taken from paper PMC7862700.
# The chains behind the UniProt entries cited, without tags or fusion partners. Where a name states a change or a piece, a line headed by the entry shows the natural chain unless it says otherwise.
# UniProt P32519: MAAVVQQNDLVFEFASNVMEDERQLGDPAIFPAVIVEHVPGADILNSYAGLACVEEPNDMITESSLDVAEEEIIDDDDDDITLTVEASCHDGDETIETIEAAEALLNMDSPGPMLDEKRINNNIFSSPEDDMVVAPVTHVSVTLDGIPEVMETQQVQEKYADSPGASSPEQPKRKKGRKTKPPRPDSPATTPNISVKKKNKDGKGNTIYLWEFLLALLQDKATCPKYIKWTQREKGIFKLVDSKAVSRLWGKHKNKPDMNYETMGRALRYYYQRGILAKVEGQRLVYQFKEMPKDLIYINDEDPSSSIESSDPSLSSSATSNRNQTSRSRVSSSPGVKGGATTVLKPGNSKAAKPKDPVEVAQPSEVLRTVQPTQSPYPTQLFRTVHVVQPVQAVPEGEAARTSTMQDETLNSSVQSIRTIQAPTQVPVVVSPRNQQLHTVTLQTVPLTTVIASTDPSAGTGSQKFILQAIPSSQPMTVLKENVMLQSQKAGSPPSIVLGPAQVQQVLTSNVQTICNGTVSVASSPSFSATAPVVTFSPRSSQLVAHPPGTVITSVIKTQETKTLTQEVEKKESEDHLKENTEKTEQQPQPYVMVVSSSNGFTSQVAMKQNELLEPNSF
# UniProt P50549: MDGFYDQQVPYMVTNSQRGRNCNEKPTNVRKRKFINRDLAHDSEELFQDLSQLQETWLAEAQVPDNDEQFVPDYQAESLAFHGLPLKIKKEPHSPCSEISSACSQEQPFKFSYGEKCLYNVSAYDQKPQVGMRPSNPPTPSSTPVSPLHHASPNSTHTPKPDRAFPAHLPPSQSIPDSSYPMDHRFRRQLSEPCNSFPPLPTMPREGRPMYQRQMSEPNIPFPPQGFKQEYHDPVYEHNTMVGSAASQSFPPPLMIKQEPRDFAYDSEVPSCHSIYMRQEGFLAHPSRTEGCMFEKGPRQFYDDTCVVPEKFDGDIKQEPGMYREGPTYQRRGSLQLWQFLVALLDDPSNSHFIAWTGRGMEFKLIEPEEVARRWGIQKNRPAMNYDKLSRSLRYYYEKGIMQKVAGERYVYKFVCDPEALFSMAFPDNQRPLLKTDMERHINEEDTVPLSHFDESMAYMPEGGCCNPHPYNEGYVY
# The entries are a selection whose mix differs from that of the whole data set. For part of these data: At the low end of the ranking, values are background and their order means little. The list shows a part of the results. For part of these data: The source does not settle which construct or isoform was used.
# Tests used:
# Assay in all cases: DAPPL (digital affinity profiling via proximity ligation, sequencing)
# Details in all cases: 10 mM Tris-HCl pH 7.5, 50 mM NaCl, 1 mM DTT, 4% glycerol, room temperature, 30 min; GST-TFs on glutathione beads, 16-mer random dsDNA library, 0.1% …; high values mean tight binding; double strand, one strand shown; scale: fold enrichment (6-mer frequency, TF over GST control)
# [1] = target: T1, ERG (UniProt P11308)
# T1 sequence: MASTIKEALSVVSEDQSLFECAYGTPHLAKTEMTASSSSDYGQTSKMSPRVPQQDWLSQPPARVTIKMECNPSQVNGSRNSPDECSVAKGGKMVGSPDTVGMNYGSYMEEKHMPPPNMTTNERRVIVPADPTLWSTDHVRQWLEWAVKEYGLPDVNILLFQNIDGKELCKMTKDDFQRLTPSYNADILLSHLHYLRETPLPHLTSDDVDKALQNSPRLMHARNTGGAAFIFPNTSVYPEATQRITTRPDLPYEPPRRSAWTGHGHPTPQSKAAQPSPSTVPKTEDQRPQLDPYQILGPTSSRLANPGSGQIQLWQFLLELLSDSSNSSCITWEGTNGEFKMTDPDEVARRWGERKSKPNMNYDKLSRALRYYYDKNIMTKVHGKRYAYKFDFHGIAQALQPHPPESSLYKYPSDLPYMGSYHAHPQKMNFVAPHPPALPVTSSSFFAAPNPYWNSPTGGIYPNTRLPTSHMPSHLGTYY
# [2] = target: ELF1 (UniProt P32519)
# [3] = target: T2, ELK4 (UniProt P28324-2)
# T2 sequence: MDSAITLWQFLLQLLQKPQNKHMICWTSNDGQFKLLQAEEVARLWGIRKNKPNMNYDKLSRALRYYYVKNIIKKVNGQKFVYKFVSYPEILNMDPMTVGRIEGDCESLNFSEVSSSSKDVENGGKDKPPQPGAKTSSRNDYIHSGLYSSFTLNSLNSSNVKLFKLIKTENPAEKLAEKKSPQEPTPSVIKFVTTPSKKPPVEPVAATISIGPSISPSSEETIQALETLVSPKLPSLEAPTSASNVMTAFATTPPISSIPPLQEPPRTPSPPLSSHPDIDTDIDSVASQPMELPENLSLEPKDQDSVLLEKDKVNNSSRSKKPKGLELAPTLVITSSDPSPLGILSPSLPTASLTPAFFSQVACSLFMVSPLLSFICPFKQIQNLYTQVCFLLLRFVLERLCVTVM
# [4] = target: T3, ETV4 (UniProt P43268)
# T3 sequence: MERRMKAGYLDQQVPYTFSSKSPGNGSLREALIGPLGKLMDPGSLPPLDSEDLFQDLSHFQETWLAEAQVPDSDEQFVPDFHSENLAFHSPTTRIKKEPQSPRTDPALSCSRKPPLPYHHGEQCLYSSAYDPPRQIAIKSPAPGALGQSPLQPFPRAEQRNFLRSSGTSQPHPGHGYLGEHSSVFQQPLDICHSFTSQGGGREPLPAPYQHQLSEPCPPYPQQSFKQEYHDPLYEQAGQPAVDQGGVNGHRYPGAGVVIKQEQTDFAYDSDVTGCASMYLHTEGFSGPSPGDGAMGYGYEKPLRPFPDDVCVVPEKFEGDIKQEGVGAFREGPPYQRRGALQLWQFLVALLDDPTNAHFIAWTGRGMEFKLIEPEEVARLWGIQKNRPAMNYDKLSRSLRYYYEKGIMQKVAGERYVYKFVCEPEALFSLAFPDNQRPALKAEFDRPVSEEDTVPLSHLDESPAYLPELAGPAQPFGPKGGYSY
# [5] = target: ETV1 (UniProt P50549)
# [6] = target: T4, ERF (UniProt P50548)
# T4 sequence: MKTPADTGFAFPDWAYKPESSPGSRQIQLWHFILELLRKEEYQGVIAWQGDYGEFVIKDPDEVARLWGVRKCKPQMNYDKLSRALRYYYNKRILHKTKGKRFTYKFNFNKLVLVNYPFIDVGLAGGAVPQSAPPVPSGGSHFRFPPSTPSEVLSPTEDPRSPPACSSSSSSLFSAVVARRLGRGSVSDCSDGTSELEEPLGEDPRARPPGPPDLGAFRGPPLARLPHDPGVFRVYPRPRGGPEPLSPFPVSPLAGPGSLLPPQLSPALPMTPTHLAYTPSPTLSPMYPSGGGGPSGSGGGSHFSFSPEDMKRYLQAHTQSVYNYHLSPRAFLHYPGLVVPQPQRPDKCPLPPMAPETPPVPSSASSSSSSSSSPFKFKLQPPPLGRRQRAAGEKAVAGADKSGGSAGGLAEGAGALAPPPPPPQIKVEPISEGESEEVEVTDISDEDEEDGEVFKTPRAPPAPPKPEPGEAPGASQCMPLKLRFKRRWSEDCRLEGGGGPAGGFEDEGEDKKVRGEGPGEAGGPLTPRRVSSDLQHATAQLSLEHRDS
Sequence,binding signal [1],binding signal [2],binding signal [3],binding signal [4],binding signal [5],binding signal [6]
CCCAGC,0.865,0.935,0.961,0.857,0.836,0.938
CGTGGT,0.597,0.577,0.722,0.617,0.577,0.649
GAGACT,0.389,0.395,0.425,0.404,0.39,0.408
CGTGCG,0.636,0.638,0.646,0.653,0.695,0.672
CGAGGG,0.719,0.669,0.671,0.702,0.681,0.755
GAGCTG,0.78,0.768,0.787,0.812,0.749,0.739
GAGGTT,0.754,0.788,0.95,0.843,0.833,0.807
GACGTA,0.727,0.715,0.786,0.666,0.742,0.7
GTCAGA,0.619,0.628,0.587,0.643,0.677,0.639
GGCAGA,0.603,0.6,0.69,0.663,0.67,0.662
GGGTCA,0.69,0.696,0.643,0.674,0.703,0.721
ATAGGA,0.899,0.758,0.787,0.822,0.795,0.807
AGGGTG,0.834,0.79,0.823,0.728,0.756,0.758
AGGGGC,0.836,0.746,0.754,0.809,0.764,0.881
GGCGCA,0.629,0.575,0.681,0.606,0.574,0.586
ACTGAG,0.745,0.814,0.863,0.766,0.769,0.769
CACGGG,0.778,0.755,0.915,0.818,0.784,0.767
TCCGTG,0.536,0.486,0.507,0.514,0.52,0.43
CAGGGT,0.854,0.848,0.848,0.849,0.875,0.897
GAGTAT,0.592,0.607,0.586,0.512,0.576,0.689

Sequence,binding signal [1],binding signal [2],binding signal [3],binding signal [4],binding signal [5],binding signal [6]
GGACGT,0.629,0.544,0.526,0.565,0.61,0.553
AGACTG,0.481,0.526,0.575,0.548,0.558,0.511
AGCCGA,0.865,0.816,0.817,0.832,0.778,0.801
TAGGGG,0.821,0.766,0.814,0.778,0.79,0.869
CCAGGC,0.466,0.413,0.413,0.426,0.462,0.431
GACGGG,0.415,0.43,0.422,0.403,0.45,0.462
AAGAGT,0.837,0.896,0.899,0.859,0.888,0.936
GAGGCC,0.465,0.427,0.449,0.43,0.419,0.45
CACGAG,0.806,0.897,0.81,0.824,0.823,0.859
GAGAGT,0.371,0.342,0.36,0.312,0.329,0.371
CTGTGA,0.479,0.5,0.52,0.49,0.53,0.526
TCGGTT,0.777,0.862,0.926,0.844,0.882,0.839
TCAGGT,0.802,0.833,0.883,0.816,0.888,0.854
GTAAGT,0.739,0.719,0.745,0.738,0.821,0.778
AGCTGG,0.906,0.888,0.941,0.933,0.823,0.857
CGGACT,0.878,0.914,0.812,0.791,0.885,0.784
GCCAGG,0.45,0.432,0.422,0.434,0.484,0.448
TCGGGC,0.505,0.522,0.503,0.502,0.512,0.501
GACCCT,0.839,0.888,0.797,0.896,0.865,1.05
GTCCGT,0.504,0.502,0.549,0.523,0.519,0.454

# Given with bars between the fields: part of the list above
Sequence | binding signal [1] | binding signal [2] | binding signal [3] | binding signal [4] | binding signal [5] | binding signal [6]
GTCAGA | 0.619 | 0.628 | 0.587 | 0.643 | 0.677 | 0.639
GGCAGA | 0.603 | 0.6 | 0.69 | 0.663 | 0.67 | 0.662
GGGTCA | 0.69 | 0.696 | 0.643 | 0.674 | 0.703 | 0.721
ATAGGA | 0.899 | 0.758 | 0.787 | 0.822 | 0.795 | 0.807

# Remaining list, next part:

Sequence,binding signal [1],binding signal [2],binding signal [3],binding signal [4],binding signal [5],binding signal [6]
CTGTCG,0.55,0.555,0.567,0.584,0.57,0.604
GTAGTG,0.714,0.796,0.82,0.709,0.828,0.797
GTCATC,0.85,0.847,0.877,0.88,0.827,0.938
GTGTGC,0.849,0.894,0.901,0.839,0.92,0.828
GCATGA,0.807,0.859,0.758,0.89,0.778,0.773
GTCGCA,0.79,0.78,0.689,0.703,0.699,0.753
ACCAGG,0.73,0.722,0.736,0.729,0.776,0.788
GAGAAC,0.426,0.408,0.409,0.375,0.389,0.406
GGTACG,0.793,0.849,0.734,0.84,0.775,0.805
GGGTGT,0.761,0.736,0.789,0.72,0.69,0.774
GCAAGA,0.828,0.795,0.777,0.778,0.818,0.867
GGCGTC,0.849,0.813,0.79,0.803,0.868,0.787
GTTAGG,0.839,0.824,0.974,0.818,0.767,0.79
CGGGGC,0.619,0.611,0.635,0.631,0.588,0.579
CGGCGT,0.903,0.854,0.904,0.87,0.922,0.925
CGGGTT,0.863,0.897,0.764,0.872,0.88,0.817
GGTTGG,0.719,0.763,0.836,0.676,0.74,0.682
GAAGGA,0.786,0.727,0.707,0.699,0.668,0.692
AGAGCG,0.436,0.409,0.426,0.433,0.444,0.436
GAGTTC,0.697,0.721,0.741,0.731,0.807,0.676
